# PubChem BioAssay AID1347075 (National Center for Advancing Translational Sciences (NCATS), 2019)
# About 5,500 (1.4%) of roughly 400,000 compounds were called active. Inconclusive means that the source gave no clear call. Such entries were picked first, then a sample of the others. The call rests on the fitted dose curve; in most records, active means well fitted cell-killing curve with a large enough effect; inconclusive means small, poorly fitted or top-dose-only effect, or effect the other way; inactive means flat fitted curve, though single readings scatter. Potencies beside an inconclusive call are fits to weak or partial responses and may not hold up.
# Experiment: qHTS assay for MDR1-selective chemotherapeutics: Primary screen using the parental adenocarcinoma cell KB-3-1; further: nearly all actives have a fitted effect of over 60% in size
# Conditions: KB-3-1 viability, CellTiter-Glo ATP luminescence, 72 h; activity change, negative = cytotoxic: at 46.1 µM (top of the series)
# Outline: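 Parental KB-3-1 adenocarcinoma cells in phenol-red-free DMEM with 10% FBS were pin-treated with compounds at several concentrations, incubated 72 h at 37 °C, and viability read by CellTiter-Glo luminescence; concentration-effect curves were fitted after normalization.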
# On the % scale 0 is the no-effect control and ±100 the full control effect; potency means the concentration at half of the fitted maximal effect.
SMILES,"activity change, negative = cytotoxic",Potency
CC(C)C(=O)Nc1ccc(-c2ccc3nncn3n2)cc1,inactive: 4.37%,
O=C(COc1ccccc1-c1ccccc1)N/N=C/c1cccc2ccccc12,,active: 1.3 µM
Cc1ccc(C)c(N2CCN(C(=O)COc3cc(=O)n(C)c4ccccc34)CC2)c1,inactive: 2.96%,
Cc1ccc(NC(=O)c2cc(-c3ccccc3)nn2-c2ccccc2)cc1,inconclusive: -15.8%,
COC(=O)c1c(SCC(=O)Nc2ccccc2OC)[nH]c2ccccc2c1=O,,"inconclusive: 9.2 µM [cytotoxic, partial curve]"
CC1CCCN(c2nc(N(C)c3ccccc3)nc(N)c2[N+](=O)[O-])C1 (configuration not stated),,"inconclusive: 13 µM [cytotoxic, partial curve, poor fit]"
Cc1cc2ccccc2n1-c1ccc(C(=O)N2CCC(C(=O)NCc3ccc(F)cc3)CC2)s1,inactive: -22.6%,
CC(C)(C)OC(=O)NCCCCCNC(=O)c1[nH]cnc1C(=O)Nc1cc(Br)ccc1F,,"inconclusive: 25.9 µM [cytotoxic, single point]"
COc1ccc(Oc2nc3c(c(=O)n(Cc4ccccc4Cl)c(=O)n3C)n2C)cc1,,"inconclusive: 23.1 µM [rising, partial curve, poor fit]"
Cc1ccc(C)c(N(C(=O)c2nsc(Cl)c2Cl)C(C(=O)NC2CCCC2)c2ccc(O)cc2)c1 (configuration not stated),,active: 20.6 µM
C=CCn1c(SCC(=O)N(CC)c2c(N)n(Cc3ccccc3)c(=O)[nH]c2=O)nnc1-c1ccccc1OC,inactive: 11.7%,
Cc1ccc(-c2nnc(Nc3ccc(O)cc3)c3ccccc23)cc1S(=O)(=O)NCC1CCCO1 (configuration not stated),,"inconclusive: 29.1 µM [cytotoxic, single point]"
CCC(=O)NC(c1cccc([N+](=O)[O-])c1)c1c(OC(C)=O)ccc2ccccc12 (configuration not stated),,"inconclusive: 29.1 µM [cytotoxic, single point]"
Cc1c(C(=O)Nc2ccccc2N2CCN(C)CC2)oc2ccc(F)cc12,,active: 16.4 µM
Cc1cc(C(=O)CN2C(=O)C(=O)N(Cc3ccccc3)C2=O)c(C)n1-c1ccc2c(c1)OCCO2,,"inconclusive: 32.6 µM [cytotoxic, single point]"
Cc1ccc(NC(=O)CSCC(=O)Nc2cccc3ncccc23)cc1,inactive: -0.874%,
Cc1nc(SCC(=O)Nc2ccc(F)cc2)c(C#N)c(C)c1CC(=O)c1ccc(Br)cc1,,active: 16.4 µM
O=C(Nc1ccc(Cl)cc1)c1ccc2sc([C@@H]3O[C@H](CO)[C@@H](O)[C@H]3O)nc2c1,inactive: -25.4%,
CC1CCc2nc(-c3cc4ccc(O)cc4oc3=O)sc2C1 (configuration not stated),,"inconclusive: 11.6 µM [cytotoxic, single point]"
COc1cc(/C=C/C(=O)N2CCCN(C(=O)/C=C/c3cc(OC)c(OC)c(OC)c3)CC2)cc(OC)c1OC,,"inconclusive: 0.231 µM [rising, full curve]"
Cc1ccc(N=Nc2c(O)n(CN3CCOCC3)c3ccccc23)cc1,inactive: -4.96%,
CN(C)c1cccc(C(=O)Nc2ccc(-c3nc4ccccc4s3)cc2)c1,inactive: -9.01%,
CC(CC(=O)Nc1ccc2c(c1)c(=O)n(C)n2-c1ccccc1)c1ccccc1 (configuration not stated),,active: 4.61 µM
C=CCC1(CC=C)CCCN1C(=O)c1cc(COc2ccc(F)c(F)c2)on1,inactive: -4.46%,

SMILES,"activity change, negative = cytotoxic",Potency
O=C(N/N=C/c1ccc(Cl)c([N+](=O)[O-])c1)c1cc(-c2ccc3c4c(cccc24)CC3)n[nH]1,,"inconclusive: 29.1 µM [cytotoxic, single point]"
CNc1nc2c(c(=O)n(C)c(=O)n2C)n1CCCc1ccccc1,,"inconclusive: 11.6 µM [cytotoxic, partial curve]"
COc1ccc(C(=O)c2ccc(C)cc2)c(OC)c1OC,,"inconclusive: 20.6 µM [cytotoxic, single point]"
COc1cccc(NC(=O)N2CCN(c3nnnn3-c3ccccc3)CC2)c1,inactive: 0.351%,
CCOC(=S)SCC(=O)Nc1nccs1,inactive: -25.3%,
CCc1nnc(NC(=O)CSCc2cc(=O)n3nc(C)sc3n2)s1,inactive: 5.64%,
Cc1ccc(C(=O)c2sc3nsc(C)c3c2N)cc1,,"inconclusive: 32.6 µM [cytotoxic, single point]"
CN(C)CCNC(=O)c1cccc(-c2cnc3c(NC=O)cc(-c4cccs4)cn23)c1,inactive: -29.5%,
O=C(CCc1ccc(Oc2cc([N+](=O)[O-])cc([N+](=O)[O-])c2)cc1)N1CCCCCC1,,"inconclusive: 8.2 µM [cytotoxic, partial curve]"
CCc1ccc(NC(=O)CCNS(=O)(=O)c2cccc3nonc23)cc1,inactive: -0.814%,
CCc1ccc(NC(=O)Cn2c(=O)ccc3cc(S(=O)(=O)N4CCCC4)ccc32)cc1,inactive: 12.2%,
O=C(c1ccc(Br)cc1)c1cc([N+](=O)[O-])ccc1N1CCCCC1,,active: 1.03 µM
Cc1ccc(-n2nnc3c(SCC(=O)NCc4ccco4)ncnc32)cc1,,"inconclusive: 29.1 µM [cytotoxic, single point]"
CN(C)c1ccc(C(=O)c2ccc(N(C)C)c(N)c2)cc1N,,"inconclusive: 23.1 µM [cytotoxic, single point]"
Cn1nnnc1Sc1ncnc2scc(-c3ccc[nH]3)c12,,"inconclusive: 20.6 µM [cytotoxic, single point]"
Nc1nonc1-c1nc2ccccc2n1Cc1ccc(F)cc1,,"inconclusive: 29.1 µM [cytotoxic, single point]"
O=C(N/N=C(\Cc1ncc[nH]1)c1ccccc1)c1ccncc1,,"inconclusive: 23.1 µM [cytotoxic, single point]"
CCCCn1c(N)c(N(CC(C)C)C(=O)CC2CCCCC2)c(=O)[nH]c1=O,,"inconclusive: 29.1 µM [rising, single point]"
CN(C)c1ccc(NC(=O)c2ccc3c(c2)nnn3C)cc1,inactive: 0.69%,
Cc1c(C(=O)Nc2cccnc2)oc2ccc(Br)cc12,,active: 8.2 µM
Cc1ccn2c(NC3CCCCC3)c(-c3cccc(-c4cccc(Cl)c4)c3)nc2c1,inactive: 0%,
CSc1ncc(C(=O)Nc2cccc(C)c2C)c(C)n1,inconclusive: 2.2%,
Cc1ccc(S(=O)(=O)N2CCOC2CNC(=O)C(=O)NCCc2ccccc2)cc1 (configuration not stated),,"inconclusive: 29.1 µM [cytotoxic, single point]"

# Random excerpt: four entries already listed, in no set order.
SMILES,"activity change, negative = cytotoxic",Potency
Cc1ccc(-n2nnc3c(SCC(=O)NCc4ccco4)ncnc32)cc1,,"inconclusive: 29.1 µM [cytotoxic, single point]"
O=C(N/N=C(\Cc1ncc[nH]1)c1ccccc1)c1ccncc1,,"inconclusive: 23.1 µM [cytotoxic, single point]"
CN(C)c1ccc(C(=O)c2ccc(N(C)C)c(N)c2)cc1N,,"inconclusive: 23.1 µM [cytotoxic, single point]"
Cc1ccc(C(=O)c2sc3nsc(C)c3c2N)cc1,,"inconclusive: 32.6 µM [cytotoxic, single point]"
